SMILES strings stand for the structures. Where a name gives a salt, the structure may show the parent alone. Some of the results follow. Single values are uncertain here, since repeats match poorly.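 The cells were human embryonic kidney cells carrying a Renilla luciferase gene, driven by the HSV-TK promoter, on a plasmid put in briefly by transfection. This is the first-round screen of about ten thousand compounds, looking for ones that raise reporter output.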

The test concerns HEK 293FT. Description: log relative Renilla luciferase luminescence (reporter expression vs reference, reference not stated) (log (base not stated)); higher = higher recombinant reporter expression. The settings on record: 10 µM; time after transfection 48 h.
Take `O=C(O)c1cc(-c2ccc(F)cc2F)ccc1O` [Diflunisal]: the log worked out at 0.0344.
As to `CCCCNC(=O)NS(=O)(=O)c1ccc(C)cc1` [Tolbutamide], the log was 0.149.
For `CC(=O)[C@H]1CC[C@H]2[C@@H]3C[C@H](C)C4=CC(=O)CC[C@]4(C)[C@H]3[C@@H](O)C[C@]12C` [Medrysone] the value was -0.0596.
For `CC(=O)OCC(=O)[C@@]12N=C(C)O[C@@H]1C[C@H]1[C@@H]3CCC4=CC(=O)C=C[C@]4(C)[C@H]3[C@@H](O)C[C@@]12C` [Deflazacort] the value was -0.145.
With `O=C(O)Cc1sc(-c2ccccc2)nc1-c1ccc(Cl)cc1` [Fentiazac], the log was -0.777.
The figure for `OCc1cc(C(O)CNCCCCCCOCCCCc2ccccc2)ccc1O` (stereo unspecified) [Salmeterol] is 0.0115.
Regarding `CNCCC(Oc1ccc(C(F)(F)F)cc1)c1ccccc1` (stereo unspecified) [Fluoxetine hydrochloride], the log is 0.131.
Turning to `Cc1nc2n(c(=O)c1CCN1CCC(c3noc4cc(F)ccc34)CC1)CCCC2` [Risperidone], the log is -0.0974.
With `CCCCOc1cc(C(=O)NCCN(CC)CC)c2ccccc2n1` [Dibucaine], the log was 0.224.
On to `O=P(O)(O)C(Cl)(Cl)P(=O)(O)O` [Clodronate], for which the log was 0.114.
For `O=C1CCc2cc(OCCCCc3nnnn3C3CCCCC3)ccc2N1` [Cilostazol] the value was -0.13; for `CCS(=O)(=O)CCn1c([N+](=O)[O-])cnc1C` [Tinidazole], -0.105.
Regarding `CCC1=C(C)CN(C(=O)NCCc2ccc(S(=O)(=O)NC(=O)N[C@H]3CC[C@H](C)CC3)cc2)C1=O` [Glimepiride], the log was found to be 0.0638.
On to `CC1(C)NC(=O)N(c2ccc([N+](=O)[O-])c(C(F)(F)F)c2)C1=O` [Nilutamide], for which the log was -0.0456.
Consider `COC(=O)[C@@H]1[C@H]2C[C@H]3c4[nH]c5ccccc5c4CCN3C[C@@H]2CC[C@@H]1O` [Yohimbine hydrochloride], for which the log is -0.0275.
For `CCCCC(CC)CNC(=N)NC(=N)NCCCCCCNC(=N)NC(=N)NCC(CC)CCCC` (stereo unspecified) [Alexidine dihydrochloride], the log is -1.39.
As to `Nc1nc(=O)c2c([nH]1)NC[C@@H](CNc1ccc(C(=O)N[C@@H](CCC(=O)O)C(=O)O)cc1)N2C=O` [Folinic acid calcium salt], the log was -0.268.
Take `COc1ccc2cc([C@@H](C)C(=O)O)ccc2c1` [(R) -Naproxen sodium salt]: the log was -0.0528.
Turning to `CCOC(=O)C1=C[C@]2(CC)CCCN3CCc4c(n1c1ccccc41)[C@@H]32` [Vinpocetine], the log stood at 0.0503.
Regarding `Cc1cccc(CN2CCN(C(c3ccccc3)c3ccc(Cl)cc3)CC2)c1` (stereo unspecified) [Meclozine dihydrochloride], the log was -0.0681.
For `COc1cnc(NS(=O)(=O)c2ccc(N)cc2)nc1` [Sulfameter] the value was 0.149.

Values taken from the supplement of paper PMC7024190.
